Measured values as given in PubChem BioAssay AID758 (NMMLSC, 2007).
Several values for one entry are separate records, joined by “and”; a condition that tells them apart may be missing. Equal values may be shown once. About 110 (0.058%) of roughly 190,000 compounds were called active. Inconclusive results, whose numbers are uncertain, are shown with a selection of clear calls.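 How the source made its calls: active means fluorescent GTP binding to Rab7 beads changed by at least 20 points from the 100% baseline, either direction, mostly lower; inconclusive means compound itself probably fluorescent, or too few beads counted; inactive means the rest.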

system: Rab7 GTPase wild type (dog), Bodipy-FL-GTP binding; test: modulators of GTP binding to Rab7, primary screen, biochemical, wildtype, multiplex bead flow cytometry (AID 758); conditions: GST-Rab7 beads, fluorescent GTP binding, at 10 µM, actives lie on both sides, untreated = 100%, excess cold GTP = 0%;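 further: median green fluorescence of bound Bodipy-FL-GTP per Rab7 bead population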

| SMILES | GTP binding activity (percent of control) |
| --- | --- |
| COc1cc(OC)cc(C(=O)N[C@H](C(=O)OCC(=O)NC(=O)c2cccn2C)C(C)C)c1 | inactive: 100% |
| NC1=NC(=O)/C(=C\c2ccc(O)c([N+](=O)[O-])c2)S1 | inactive: 85% |
| O=c1c2ccccc2nc2ccc(NCc3ccco3)nn12 | inactive: 93% |
| C=CCN1C(=O)/C(=C/c2ccc(N(C)C)cc2)S/C1=N\c1nnc(CC)s1 | inconclusive: 141% |
| Cc1n[nH]c(C)c1CCOc1ccc(C(C)C)cc1 | inconclusive: 92% |
| O=C(O)c1ccc(Br)c(S(=O)(=O)N2CCCC2)c1 | inconclusive: 123% |
| COc1cccc(-n2ccnc2SCC(=O)Nc2ccccc2F)c1 | inconclusive: 92% |
| CCOC(=O)c1c(-c2ccccc2)csc1NC(=O)/C(C#N)=C/c1ccc(O)c(OC)c1 | inconclusive: 157% |
| Cc1cc(C)c2cc(CNC3CCCC3)c(Cl)nc2c1 | inconclusive: 122% |
| CCN(CC)C(=O)/C(=C\c1ccc2c(c1)OCO2)NC(=O)c1ccc(Br)cc1 | inconclusive: 95% |
| COC(=O)c1ccccc1NC(=O)C1COc2ccccc2O1 (stereo not given) | inconclusive: 94% |
| CC(c1ccccc1)N1CC(C(=O)N2CCN(c3ccc(F)cc3)CC2)CC1=O (stereo not given) | inconclusive: 90% |
| COc1ccc(CC(=O)Nc2ccc(S(=O)(=O)NC(C)C)cc2)cc1 | active: 22% |
| CCOC(=O)/C=C/C(=O)Nc1ccc(Oc2ccccc2)cc1 | inconclusive: 96% |
| O=C(NCCCN1CCOCC1)c1cccc(S(=O)(=O)Nc2cc(Cl)ccc2Cl)c1 | inactive: 101% |
| O=C(NCCc1ccccc1)c1c(F)c(F)c(F)c(F)c1F | inactive: 99% |
| Cn1nnnc1SCc1ccc(C(=O)Nc2nccs2)cc1 | inactive: 82% |
| Cc1ccccc1C(=O)NNC(=O)c1cccc([N+](=O)[O-])c1 | inconclusive: 96% |
| Clc1cccc(-c2nc(NCC3CCCO3)c3ccccc3n2)c1 (stereo not given) | inactive: 96% |
| CC(C)Oc1ccc(C(CC(=O)O)n2cnnn2)cc1 (stereo not given) | inconclusive: 97% |

| SMILES | GTP binding activity (percent of control) |
| --- | --- |
| CC1Oc2ccccc2OC1C(=O)Nc1ccccn1 (stereo not given) | inconclusive: 99% |
| CCOc1ccc(-n2c(=S)sc3c(=O)[nH]c(SCC(=O)N4CCC(C)CC4)nc32)cc1 | inconclusive: 101% |
| O=C(NCc1ccco1)/C(=C\c1cccs1)NC(=O)c1ccco1 | inconclusive: 96% |
| Cc1c(C(=O)Nc2ccc(F)cc2)c2ccccn2c1CCc1ccncc1 | inactive: 95% |
| CC(C)(C)NCCOc1ccc(Br)cc1 | inconclusive: 102% |
| COC(=O)C1=C(O)CSC1=Nc1cccc(C(F)(F)F)c1 | inconclusive: 101% |
| Cc1cccc(N=c2c([N+](=O)[O-])nn(-c3ccc(Cl)cc3)n2O)c1 | inconclusive: 95% |
| COC(=O)C1CCN(CC(=O)Nc2sc3c(c2C#N)CCC3)CC1 | inconclusive: 92% |
| CCN1CCN(C(=O)C(C)Nc2ccc(OC)cc2OC)CC1 (stereo not given) | inactive: 105% |
| COc1ccc(CCNC(=O)[C@@H](NC(N)=O)C(C)C)cc1 | inconclusive: 96% |
| CC(C)CNC(=O)c1ccc(Cl)c(N)c1 | inactive: 96% |
| COc1ccccc1N1CCN(S(=O)(=O)c2cn(C)c(=O)n(C)c2=O)CC1 | inconclusive: 100% |
| O=C(NCC(c1cccnc1)N1CCN(c2ccc(F)cc2)CC1)c1ccco1 (stereo not given) | inactive: 94% |
| O=Cc1ccc2oc3nc4n(c(=O)c3c(=O)c2c1)CCCS4 | inconclusive: 91% |
| O=c1[nH]c(SCc2cccc(Cl)c2)nc2ccccc12 | inconclusive: 96% |
| O=C(Nc1ccc(N2CCN(C(=O)c3ccccc3F)CC2)cc1)c1ncn[nH]1 | inactive: 107% |
| CC(NC(=O)OC(C)(C)C)C(=O)NC(CCC(=O)OCc1ccccc1)C(N)=O (stereo not given) | inactive: 97% |
| C=CCN1C(=O)C2C3CC(=O)C(c4ccccc43)C2C1=O (stereo not given) | inactive: 98% |
| CC(C)Oc1ccc(C(=O)N2CCCC2C(=O)O)cc1 (stereo not given) | inconclusive: 125% |
| Cc1cc(C)c2c(NC(=S)NC(=O)c3ccccc3)n[nH]c2n1 | inactive: 96% |

Copied from the list:
In GTP binding activity (percent of control), O=Cc1ccc2oc3nc4n(c(=O)c3c(=O)c2c1)CCCS4 shows inconclusive: 91%
In GTP binding activity (percent of control), C=CCN1C(=O)C2C3CC(=O)C(c4ccccc43)C2C1=O (stereo not given) shows inactive: 98%
In GTP binding activity (percent of control), O=C(Nc1ccc(N2CCN(C(=O)c3ccccc3F)CC2)cc1)c1ncn[nH]1 shows inactive: 107%
In GTP binding activity (percent of control), O=C(NCC(c1cccnc1)N1CCN(c2ccc(F)cc2)CC1)c1ccco1 (stereo not given) shows inactive: 94%

The results go on.

| SMILES | GTP binding activity (percent of control) |
| --- | --- |
| CN(Cc1ccccc1)c1nc(N)c([N+](=O)[O-])c(Nc2cccc(F)c2)n1 | inactive: 98% |
| CC(=O)Oc1ccc2nc(CN3C(=O)c4ccc([N+](=O)[O-])cc4C3=O)oc(=O)c2c1 | inconclusive: 86% |
| O=C(COC(=O)CSc1ccc2ccccc2c1Br)NC1CC1 | inactive: 94% |
| COC(=O)CCC(=O)Nc1cccc([N+](=O)[O-])c1 | inconclusive: 93% |
| Cc1cc(C)n2nc(C(=O)N(C)C(c3ccccc3)c3ccccc3)nc2n1 | inconclusive: 93% |
| O=C(O)Cc1coc2cc3c(cc12)CCC3 | active: 79% |
| COc1ccc(-c2cn(-c3ccccc3)c3[n+]2CCS3)cc1 | inactive: 101% and inactive: 105% |
| COc1ccc(NC(=O)CSC2CC(=O)N(c3ccc4c(c3)OCCO4)C2=O)cc1 (stereo not given) | inconclusive: 108% |
| Cc1ccccc1NC(=O)CSc1nnc(-c2ccccc2)n1-c1ccccc1 | inconclusive: 100% |
| CC1=NNC(=O)C1C(c1ccccc1)C(C#N)C#N (stereo not given) | inconclusive: 93% |
| Cc1ccc(OCc2ccc(C(=O)NCc3cccnc3)cc2)cc1C | inactive: 98% |
| COCCCn1cc(C(=O)c2cc(OC)ccc2OCC(=O)Nc2cc(C)on2)cc(C#N)c1=O | inactive: 104% |
| Cc1cc(C)cc(Nc2cc(C)nc3nc(C)nn23)c1 | inconclusive: 102% |
| O=S(=O)(O)c1nc2ccccc2n1Cc1ccc(Cl)cc1Cl | inconclusive: 93% |
| COc1ccc(C(=O)Nc2cc3c(cc2C#N)OCO3)cc1S(=O)(=O)NCc1ccco1 | inconclusive: 103% |
| Cc1cccc(-n2c(C)cc(/C=N/NC(=O)c3ccc(CN4CCOCC4)cc3)c2C)c1 | inconclusive: 95% |
| CCOc1ccc(CCNC(=O)COC(=O)c2cc(OC)c(OC)c(OC)c2)cc1OCC | inactive: 101% |
| Cc1cnc(NC(=O)Cc2cccs2)s1 | inactive: 91% |
| C[N+]1(C2CCC3CCCC2C3O)CCCCC1 (stereo not given) | inconclusive: 96% |
| C=C1CSc2nc(=O)c3c4c(sc3n21)CCCC4 | inconclusive: 101% |
